In article PMC10637790:

Molecular target: T1, Flag-tagged chondroitin polymerizing factor (CHPF) expressed in glioma cells (UniProt Q8IZ52)
T1 sequence: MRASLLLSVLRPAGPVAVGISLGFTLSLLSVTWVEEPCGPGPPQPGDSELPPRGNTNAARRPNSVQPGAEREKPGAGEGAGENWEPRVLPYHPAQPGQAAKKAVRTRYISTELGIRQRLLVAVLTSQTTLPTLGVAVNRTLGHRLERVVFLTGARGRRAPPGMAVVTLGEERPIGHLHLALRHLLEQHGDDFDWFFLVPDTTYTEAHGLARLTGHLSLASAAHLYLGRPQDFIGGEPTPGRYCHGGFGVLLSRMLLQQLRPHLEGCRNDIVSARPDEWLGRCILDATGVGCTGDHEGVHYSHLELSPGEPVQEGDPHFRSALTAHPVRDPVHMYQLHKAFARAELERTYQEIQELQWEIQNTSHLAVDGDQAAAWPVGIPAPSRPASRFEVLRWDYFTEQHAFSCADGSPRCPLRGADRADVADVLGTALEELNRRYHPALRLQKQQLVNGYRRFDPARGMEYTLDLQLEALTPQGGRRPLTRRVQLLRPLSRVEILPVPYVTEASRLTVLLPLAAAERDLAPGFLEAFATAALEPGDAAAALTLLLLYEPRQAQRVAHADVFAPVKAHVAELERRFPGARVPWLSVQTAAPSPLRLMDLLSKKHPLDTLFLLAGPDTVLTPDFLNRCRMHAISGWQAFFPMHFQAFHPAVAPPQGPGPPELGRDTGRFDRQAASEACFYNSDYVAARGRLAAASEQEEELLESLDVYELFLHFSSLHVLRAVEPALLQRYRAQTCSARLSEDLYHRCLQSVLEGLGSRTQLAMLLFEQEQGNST
Experiment: affinity purification with mass spectrometry; total protein from U251 cells immunoprecipitated with anti-Flag-CHPF or anti-IgG at 4 C for 12 h; SDS-PAGE bands analysed by LC-MS/MS

binding: binds
B1: Mitotic arrest deficient 1-like 1 (MAD1L1), endogenous in glioma cells (protein, UniProt Q9Y6D9 1-718)
chain: MEDLGENTMVLSTLRSLNNFISQRVEGGSGLDISTSAPGSLQMQYQQSMQLEERAEQIRSKSHLIQVEREKMQMELSHKRARVELERAASTSARNYEREVDRNQELLTRIRQLQEREAGAEEKMQEQLERNRQCQQNLDAASKRLREKEDSLAQAGETINALKGRISELQWSVMDQEMRVKRLESEKQELQEQLDLQHKKCQEANQKIQELQASQEARADHEQQIKDLEQKLSLQEQDAAIVKNMKSELVRLPRLERELKQLREESAHLREMRETNGLLQEELEGLQRKLGRQEKMQETLVGLELENERLLAKLQSWERLDQTMGLSIRTPEDLSRFVVELQQRELALKDKNSAVTSSARGLEKARQQLQEELRQVSGQLLEERKKRETHEALARRLQKRVLLLTKERDGMRAILGSYDSELTPAEYSPQLTRRMREAEDMVQKVHSHSAEMEAQLSQALEELGGQKQRADMLEMELKMLKSQSSSAEQSFLFSREEADTLRLKVEELEGERSRLEEEKRMLEAQLERRALQGDYDQSRTKVLHMSLNPTSVARQRLREDHSQLQAECERLRGLLRAMERGGTVPADLEAAAASLPSSKEVAELKKQVESAELKNQRLKEVFQTKIQEFRKACYTLTGYQIDITTENQYRLTSLYAEHPGDCLIFKATSPSGSKMQLLETEFSHTVGELIEVHLRRQDSIPAFLSSLTLELFSRQTVA

No constants are given. Whether binding was seen depends on the method and setting. Binding seen in cells or lysates may run through a third protein. Here binding means that the protein was enriched with, or labelled near, the bait; the list need not be complete. Tags and fused reporters may be left off the sequences shown.
